Experimental data taken from PubChem BioAssay AID1347076 (National Center for Advancing Translational Sciences (NCATS), 2019).
The campaign covered roughly 400,000 compounds. About 13,000 (3.2%) were called active. The shares of active, inactive and inconclusive entries below differ from those in the screen. Calls come from the whole dose curve; as a rule, active = well fitted cell-killing curve with a large enough effect; inconclusive = small, poorly fitted or top-dose-only effect, or effect the other way; inactive = flat fitted curve, though single readings scatter. Where the call is inconclusive, the potency comes from a doubtful curve fit.

assay: qHTS assay for MDR1-selective chemotherapeutics: Primary screen using the drug-selected MDR subline cells KB-V1; details: KB-V1 MDR cells viability, CellTiter-Glo, 72 h; activity change, negative = cytotoxicity: at 46.1 µM (top of the series); note: nearly all actives have a fitted effect of over 60% in size
Summary of the method: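 Potencies derive from concentration-effect curves fitted to normalized luminescence (CellTiter-Glo) of KB-V1 cells treated for 72 h at 37 degrees C in phenol-red-free DMEM containing 10% FBS.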
% is set by controls: 0 for no effect and ±100 for the full control effect; potency is the fitted concentration of half-maximal effect.

Compound	activity change, negative = cytotoxicity	Potency
O=S1(=O)NC2c3ccccc3CC2O1 (stereo unspecified)	inactive: -1.31%	
NC(=O)Nc1ccc2c(c1)OCCO2	inactive: 16.9%	
CCN(c1ccccc1)S(=O)(=O)c1cccc(C(=O)Nc2cccc(C)n2)c1		inconclusive: 0.92 µM [cytotoxic, full curve]
O=C1CC2(CCCCC2)Oc2ccc(F)cc21		inconclusive: 29.1 µM [rising, single point]
COc1ccc(/C=C2/N=C(c3cccs3)OC2=O)cc1OC(C)C		inconclusive: 16.4 µM [rising, single point]
N#Cc1sc2nc3c(cc2c1N)CCCC3		inconclusive: 5.8 µM [cytotoxic, partial curve, poor fit]
CCOc1ccccc1C(=O)Nc1cccc(-c2ccc3nncn3n2)c1		inconclusive: 20.6 µM [cytotoxic, single point]
COc1ccc(CCNC(=O)C2CCC(=O)N(C3CCCCCC3)C2)cc1 (stereo unspecified)	inactive: 0%	
Clc1ccc(CSc2cnnc3ccccc23)cc1Cl	inactive: -2.42%	
CSCC[C@H](NC(=O)OC(C)(C)C)c1nnc(SCc2ccccc2)o1		active: 9.2 µM
N#CC(C#N)=C1C=C2C=C(N3CCCCC3)CCC2CC1 (stereo unspecified)		inconclusive: 29.1 µM [cytotoxic, single point]
CCOC(=O)CSc1nc2ccccc2c(=O)n1Cc1ccco1	inactive: -11%	
Cc1ccc(NC(=O)Cn2cccc2C2=NC(c3ccccc3)CO2)c(C)c1 (stereo unspecified)		active: 16.4 µM
CCOC(=O)/C=C/c1ccc2c(c1)S(=O)(=O)N(C1CCCC1)[C@H]2CC(=O)OCC		inconclusive: 13 µM [cytotoxic, partial curve]
CN(CCOc1ccccc1)CC(=O)Nc1cc([N+](=O)[O-])ccc1Cl		inconclusive: 13 µM [cytotoxic, partial curve]
COc1cccc(CNC(=O)CN(c2ccc(C(C)C)cc2)S(=O)(=O)c2c(C)noc2C)c1		inactive
CC1(c2ccccc2)CC(C)(C)N2C(=O)/C(=C3\SC(=S)NC3=O)c3cccc1c32 (stereo unspecified)		inconclusive: 14.6 µM [cytotoxic, partial curve, poor fit]
N#C/C(=C\C=C\c1ccccc1)C(=O)NCc1cccnc1		inconclusive: 25.9 µM [cytotoxic, partial curve, poor fit]
Cc1cc(-c2ccc(S(=O)(=O)N3CCN(c4ccccc4F)CC3)s2)on1	inactive: 8.02%	
OC(CNC1CCCC1)COc1c(F)cc(Br)cc1F (stereo unspecified)		inconclusive: 16.4 µM [cytotoxic, single point]
Cc1ccc(S(=O)(=O)CCC(=O)N(Cc2nnc(-c3ccc(Cl)cc3)o2)C2CC2)cc1		inconclusive: 29.1 µM [cytotoxic, single point]

Pulled by compound from the list above, 2 records:
Compound	activity change, negative = cytotoxicity	Potency
CCN(c1ccccc1)S(=O)(=O)c1cccc(C(=O)Nc2cccc(C)n2)c1		inconclusive: 0.92 µM [cytotoxic, full curve]
CCOc1ccccc1C(=O)Nc1cccc(-c2ccc3nncn3n2)c1		inconclusive: 20.6 µM [cytotoxic, single point]
